Drawing on the supplement of paper PMC5949888, this text covers growth estimate for 115 substances.

Most values lie at the floor of the assay. Slopes are relative: functional sequences can read slightly below zero.

The series relates to Saccharomyces cerevisiae PS128 hsf1 delta, HSF1(1-493) fusion. Kind of series: growth estimate (transactivation domain function in HSF1 fusion, heat-shock survival) (a.u. (slope of normalised read count over time)); higher = stronger growth at 37°C, i.e. more transactivation activity. As to conditions: library: random library.
Take GGRVTVRLTA: the growth estimate was less than -0.25. The figure for QPVWPSYRRPARLYLSIRVG is less than -0.25; for MARVNSLL it is less than -0.25. The figure for RTSAGDDAEKMLRREDRPQQ is less than -0.25; for RNIRVRIR it is less than -0.25. The figure for VVGSHFRRRWGNVRPTCQHS is less than -0.25; for QSH it is less than -0.25; for DNIV it is less than -0.25. Regarding IRRQED, the growth estimate is less than -0.25. Regarding FDGLALVTDLRLYLGTGVSG, the growth estimate was less than -0.25. The figure for GSGHVNWAE is less than -0.25; for DNRLRLNRTLKKFERIPIHM it is less than -0.25; for GGRTAKLMNRSEL it is -0.23. The figure for IMIV is less than -0.25. The figure for RSLRISTIVGRNGSSEYSIK is less than -0.25. As for PGQRNRTPRNPDSSRL, the growth estimate is -0.246. As for SHDPPKL, the figure is less than -0.25; as for NEAFVPLIARAS, less than -0.25.

As for QLQRLRLVFKLEILKTKCDP, the growth estimate was less than -0.25. The figure for ADKKLRDSLSTKRLHQPRVV is less than -0.25.

In the case of LTAFSCWEEGKVE, the growth estimate was 0.145. With RTTQTFPRFSATTERQRPSG, the growth estimate was less than -0.25. Regarding QCLRQSSVWPSQ, the growth estimate is less than -0.25.

GDSGGVSRRKKNKYGQDP: the growth estimate is less than -0.253. On to RPDRSGVIWLSLGQSTVVW, for which the growth estimate was less than -0.25. The figure for TMA is less than -0.25; for RVVTSETYGWCRPVAIGFPG it is less than -0.25; for QAHQMGNQRDPVQSRGRRG it is less than -0.25. In the case of VLADIARYRKRYLARVCHHM, the growth estimate was less than -0.25. Take RLDGARSRTRWPFRVYNYST: the growth estimate is less than -0.25. As for RRVPRSTSYNVPF, the figure is less than -0.25.

As to AKLGERPGPF, the growth estimate was less than -0.25. For INQVPRTQNDSNPLNPGWHL, the growth estimate is less than -0.25. PDNGGSGTRASSTPFYAFCL: the growth estimate was -0.232.

Take RQGKRAFHQQKRSM: the growth estimate is less than -0.25.

For GMVLGRDRKLLVIWSYRFGP, the growth estimate was less than -0.25. For the substance ESVRIVYVEHYQYNVLRDLV, the growth estimate is less than -0.25.

With FSCH, the growth estimate was less than -0.25. As for ELAAVDVYTINGGNVGRPPL, the figure is less than -0.25; as for SLHIMGLLGGPDW, less than -0.25.

As for ARHDGGFVE, the growth estimate was less than -0.25.

In the case of NAVTTSL, the growth estimate was less than -0.25. As for GLDEC, the figure is less than -0.25; as for LCVARRSILRSEAVS, less than -0.25; as for ANSRTGI, less than -0.25. The figure for LNSSYPGRSGAE is less than -0.25. The figure for RRQCIVG is less than -0.25; for VAERELV it is less than -0.25.

Turning to ACEVKIPQWNFCPASEQVKP, the growth estimate is less than -0.25. SSCGTRQSPSRIILIWVRAI: the growth estimate is less than -0.25. The figure for VTIAPPLPTSGAGRYANNLQ is less than -0.253; for ATSLSYTVV it is -0.0894.

As to RLGDWGMCMLGLRLRENGFA, the growth estimate was less than -0.25.

As for HNK, the growth estimate is less than -0.25. As for SLGFINF, the figure is less than -0.25. The figure for GMQGLLLQLMPVAMGHRPYN is less than -0.25; for NRVIKLVPIRGHVKRLLARE it is less than -0.25; for QLARDSAARLADSWII it is less than -0.25.

For ISLTFVGRSFIYNFCAVRPW, the growth estimate was less than -0.25.

For GYESHLMSIFGRYEGQVATY, the growth estimate is less than -0.25. As for IPEDLRLIHM, the figure is -0.239; as for LPGP, less than -0.25; as for SLCSS, less than -0.25. As for SGLQWDRRKISGKRARGPYA, the figure is less than -0.25; as for ATMGIAMYGHKRHSCGNSLG, less than -0.25; as for FVKDARVNCVNPRF, less than -0.25. The figure for MNSE is less than -0.25; for IPVARFSRCSIGEVYGPIWK it is less than -0.25; for WKVAVVLAQGRQPMSRLDGA it is less than -0.25. For the substance HCVHVQFVLLRTHTILEFL, the growth estimate was less than -0.25. As for LLVTDDRFKSAPTELSRPPG, the growth estimate was less than -0.25. The figure for SSTPVRRGLRTEQFAPA is less than -0.25; for SSWDYVRHGAAKMSGATRRI it is less than -0.25; for FGQGVQSFCFCGLSRSRSIR it is less than -0.25. Consider FSLDSRVR, for which the growth estimate was less than -0.25. As for DPLGAMIRRLVAIIVNTGRC, the figure is less than -0.25. In the case of WCRRIRGARARGAVEI, the growth estimate was less than -0.25. Take FDTVLV: the growth estimate is less than -0.25. As for NAKCRQCLYTFRPGGS, the figure is less than -0.25; as for LFEACRILYG, less than -0.25. As for EWFREPGRRKGQAPSK, the figure is less than -0.25; as for VHSPTDMAW, less than -0.25. The figure for VTARKQR is less than -0.25; for RFCMFYLSNLFATLRLRSYA it is less than -0.25; for HPSNVSKRGRSGSCLFALVS it is less than -0.25. For the substance NSWM, the growth estimate was less than -0.25. The figure for GFHRPGDSMYATRLSPTVPS is less than -0.25. As for EASVSIMAPQNGVWILVPDG, the figure is less than -0.25; as for IWTAFRGGS, less than -0.25; as for FCHW, -0.238. As for KPEVGY, the figure is less than -0.25. For GLRREAASHFVRVVRRTN, the growth estimate was less than -0.25. Turning to HVDITVRARSSRRIVAALRG, the growth estimate is less than -0.25. GHIISAQGATLCIKA: the growth estimate is less than -0.25.

LVKRR: the growth estimate was less than -0.25. As for RVWNLSMP, the figure is less than -0.25; as for KPDPTGRSPRRAYRAGPV, less than -0.25. As for LPRDHQKSSDQRASICCGSA, the figure is less than -0.25. The figure for SGGRDASRRLR is less than -0.25; for MLRLVLDLGRLLEAADQDLK it is less than -0.25. With LWGEVSVMARGAALNSSNIL, the growth estimate is less than -0.25. Turning to GHSISKA, the growth estimate is less than -0.25.

As for SVV, the growth estimate was less than -0.25.

Regarding MRHGCRTELKCTCVDARSKP, the growth estimate was less than -0.25. Take QQSTRVHGTIATRTTITQS: the growth estimate is less than -0.25. As for AHSASHCMNTISNLPSRELL, the figure is less than -0.25; as for KRVPASSCRTTAGY, less than -0.25; as for EVVLIVQNDDSSTLRWIRIA, -0.248. As for WKMLRKLGSLRCINTSDAIH, the figure is less than -0.25; as for RLRVD, less than -0.25. Take SKDPSASRQVDKRRVPPMLE: the growth estimate is less than -0.25.

Regarding SYLASMSVLVFHKHWALVDR, the growth estimate is less than -0.25. The figure for VLFFVLCRIFEEAVTGCATV is less than -0.25. Consider QGMRDGLSRCVDPVRLGRGY, for which the growth estimate is less than -0.25. The figure for IIRRAVRIRRLGVTPTAFQH is less than -0.25.
